In the supplement of paper PMC10849652:
Some of the results follow.

Protein sequences, listed by entry. Tags and fused reporters are not part of them. Lines headed by an entry give the natural chain unless they say otherwise; changes in a name come on top.
UniProt Q96ME1: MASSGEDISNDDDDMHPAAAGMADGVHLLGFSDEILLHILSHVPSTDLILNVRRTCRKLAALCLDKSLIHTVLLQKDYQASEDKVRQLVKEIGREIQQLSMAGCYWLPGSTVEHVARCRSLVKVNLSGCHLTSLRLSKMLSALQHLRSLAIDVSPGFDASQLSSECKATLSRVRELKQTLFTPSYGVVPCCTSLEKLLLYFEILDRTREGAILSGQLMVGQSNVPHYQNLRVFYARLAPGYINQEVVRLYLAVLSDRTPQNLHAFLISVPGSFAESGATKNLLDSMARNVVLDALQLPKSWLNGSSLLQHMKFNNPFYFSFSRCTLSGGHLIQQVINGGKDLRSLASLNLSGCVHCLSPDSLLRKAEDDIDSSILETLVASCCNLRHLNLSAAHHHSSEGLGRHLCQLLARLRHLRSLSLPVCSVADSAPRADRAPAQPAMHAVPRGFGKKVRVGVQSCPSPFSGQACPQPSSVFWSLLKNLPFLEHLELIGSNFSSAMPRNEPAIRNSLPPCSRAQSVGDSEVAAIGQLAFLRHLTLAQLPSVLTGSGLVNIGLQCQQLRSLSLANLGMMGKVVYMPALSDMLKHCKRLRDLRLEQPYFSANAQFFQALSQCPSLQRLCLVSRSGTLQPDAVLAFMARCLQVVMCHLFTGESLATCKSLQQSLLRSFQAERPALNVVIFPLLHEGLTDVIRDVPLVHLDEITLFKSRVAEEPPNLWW
UniProt Q96ND0: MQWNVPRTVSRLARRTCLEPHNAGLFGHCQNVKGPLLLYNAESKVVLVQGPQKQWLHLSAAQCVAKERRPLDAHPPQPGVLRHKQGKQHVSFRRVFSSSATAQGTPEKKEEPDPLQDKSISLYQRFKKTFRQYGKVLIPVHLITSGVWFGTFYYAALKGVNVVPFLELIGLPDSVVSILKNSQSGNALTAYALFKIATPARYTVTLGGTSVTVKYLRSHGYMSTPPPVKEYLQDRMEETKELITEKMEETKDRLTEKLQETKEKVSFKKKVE
UniProt Q9UBU6: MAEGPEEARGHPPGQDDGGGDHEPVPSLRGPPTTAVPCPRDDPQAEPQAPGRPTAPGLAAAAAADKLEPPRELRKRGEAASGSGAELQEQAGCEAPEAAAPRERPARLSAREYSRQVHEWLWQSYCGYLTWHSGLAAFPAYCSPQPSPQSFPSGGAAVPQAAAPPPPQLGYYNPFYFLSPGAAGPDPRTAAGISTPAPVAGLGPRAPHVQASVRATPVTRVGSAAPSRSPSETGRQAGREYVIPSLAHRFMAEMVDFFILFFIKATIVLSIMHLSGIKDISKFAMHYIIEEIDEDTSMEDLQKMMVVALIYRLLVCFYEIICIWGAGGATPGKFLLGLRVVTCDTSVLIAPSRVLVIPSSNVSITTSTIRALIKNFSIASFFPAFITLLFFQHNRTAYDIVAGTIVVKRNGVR
UniProt Q6UN15: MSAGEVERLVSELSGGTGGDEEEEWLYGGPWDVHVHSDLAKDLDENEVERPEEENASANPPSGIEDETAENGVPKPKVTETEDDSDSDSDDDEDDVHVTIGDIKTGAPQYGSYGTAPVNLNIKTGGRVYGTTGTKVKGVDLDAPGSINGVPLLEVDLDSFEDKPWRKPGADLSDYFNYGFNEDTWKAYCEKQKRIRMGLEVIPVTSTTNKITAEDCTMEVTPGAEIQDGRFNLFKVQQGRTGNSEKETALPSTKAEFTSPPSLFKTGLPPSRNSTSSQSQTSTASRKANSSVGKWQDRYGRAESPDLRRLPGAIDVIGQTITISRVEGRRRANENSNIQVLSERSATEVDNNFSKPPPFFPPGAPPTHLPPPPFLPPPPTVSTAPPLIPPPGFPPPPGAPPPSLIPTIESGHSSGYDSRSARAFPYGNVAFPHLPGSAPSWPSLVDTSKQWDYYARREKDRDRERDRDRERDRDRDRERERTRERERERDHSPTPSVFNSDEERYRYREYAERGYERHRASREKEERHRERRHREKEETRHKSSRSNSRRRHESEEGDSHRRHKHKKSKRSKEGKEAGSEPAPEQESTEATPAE
UniProt O95363: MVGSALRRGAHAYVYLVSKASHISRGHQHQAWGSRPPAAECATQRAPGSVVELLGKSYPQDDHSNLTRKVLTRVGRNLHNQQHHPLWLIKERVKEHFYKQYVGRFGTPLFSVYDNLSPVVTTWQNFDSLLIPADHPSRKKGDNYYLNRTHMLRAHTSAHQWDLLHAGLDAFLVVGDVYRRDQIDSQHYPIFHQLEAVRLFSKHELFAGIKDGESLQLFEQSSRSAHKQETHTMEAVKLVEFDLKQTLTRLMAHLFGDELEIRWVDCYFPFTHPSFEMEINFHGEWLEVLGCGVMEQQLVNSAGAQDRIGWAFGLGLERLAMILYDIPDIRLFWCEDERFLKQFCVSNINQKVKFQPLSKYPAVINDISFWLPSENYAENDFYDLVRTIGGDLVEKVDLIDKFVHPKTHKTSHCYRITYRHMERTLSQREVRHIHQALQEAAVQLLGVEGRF
UniProt Q8WVX9: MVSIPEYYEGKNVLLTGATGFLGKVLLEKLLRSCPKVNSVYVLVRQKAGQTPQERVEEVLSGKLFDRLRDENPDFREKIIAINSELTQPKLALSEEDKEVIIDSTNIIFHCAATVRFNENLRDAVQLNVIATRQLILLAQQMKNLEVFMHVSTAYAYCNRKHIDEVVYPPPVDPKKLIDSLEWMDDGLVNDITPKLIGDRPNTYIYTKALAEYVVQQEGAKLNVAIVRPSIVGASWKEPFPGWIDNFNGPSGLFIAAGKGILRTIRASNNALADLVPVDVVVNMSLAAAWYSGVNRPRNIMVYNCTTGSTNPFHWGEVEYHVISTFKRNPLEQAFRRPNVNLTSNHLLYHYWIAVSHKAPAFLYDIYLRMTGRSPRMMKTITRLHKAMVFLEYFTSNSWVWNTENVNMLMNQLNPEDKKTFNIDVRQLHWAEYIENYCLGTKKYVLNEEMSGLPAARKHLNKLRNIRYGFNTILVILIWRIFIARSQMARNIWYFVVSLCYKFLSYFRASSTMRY
UniProt Q9Y3I1: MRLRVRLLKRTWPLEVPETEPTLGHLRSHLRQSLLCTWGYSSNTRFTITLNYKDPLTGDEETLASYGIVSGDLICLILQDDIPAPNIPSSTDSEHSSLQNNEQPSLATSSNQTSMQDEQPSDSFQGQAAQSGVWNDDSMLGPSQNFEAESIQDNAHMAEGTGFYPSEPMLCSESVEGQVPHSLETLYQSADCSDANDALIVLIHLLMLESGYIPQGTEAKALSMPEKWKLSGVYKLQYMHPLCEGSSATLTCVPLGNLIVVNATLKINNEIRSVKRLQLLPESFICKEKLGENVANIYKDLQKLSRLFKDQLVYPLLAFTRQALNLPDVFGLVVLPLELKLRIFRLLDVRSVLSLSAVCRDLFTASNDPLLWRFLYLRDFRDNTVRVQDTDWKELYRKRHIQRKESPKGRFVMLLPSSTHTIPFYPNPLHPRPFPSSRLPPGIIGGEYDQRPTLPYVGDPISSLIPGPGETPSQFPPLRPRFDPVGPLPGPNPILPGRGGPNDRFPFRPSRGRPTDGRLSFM
UniProt O95684: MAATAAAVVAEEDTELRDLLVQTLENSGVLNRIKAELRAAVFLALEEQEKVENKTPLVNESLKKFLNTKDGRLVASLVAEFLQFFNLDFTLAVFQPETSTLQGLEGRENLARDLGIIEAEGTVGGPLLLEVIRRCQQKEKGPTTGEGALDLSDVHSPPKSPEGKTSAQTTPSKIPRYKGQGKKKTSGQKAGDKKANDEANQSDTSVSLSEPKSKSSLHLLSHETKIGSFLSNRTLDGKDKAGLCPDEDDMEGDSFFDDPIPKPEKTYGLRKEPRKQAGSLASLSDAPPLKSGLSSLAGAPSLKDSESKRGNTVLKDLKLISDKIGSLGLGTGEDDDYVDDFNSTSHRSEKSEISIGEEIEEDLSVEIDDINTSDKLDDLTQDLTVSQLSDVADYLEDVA
UniProt Q92520: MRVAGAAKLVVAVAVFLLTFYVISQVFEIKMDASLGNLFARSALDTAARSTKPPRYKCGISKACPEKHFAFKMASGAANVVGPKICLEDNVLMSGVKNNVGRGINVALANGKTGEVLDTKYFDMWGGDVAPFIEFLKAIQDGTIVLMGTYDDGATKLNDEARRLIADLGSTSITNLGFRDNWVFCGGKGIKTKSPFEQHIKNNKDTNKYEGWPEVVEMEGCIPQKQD
UniProt Q96HJ9: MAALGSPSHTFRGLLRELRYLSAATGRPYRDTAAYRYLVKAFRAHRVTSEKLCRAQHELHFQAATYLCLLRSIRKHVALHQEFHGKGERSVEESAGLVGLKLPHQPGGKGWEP
UniProt P31995: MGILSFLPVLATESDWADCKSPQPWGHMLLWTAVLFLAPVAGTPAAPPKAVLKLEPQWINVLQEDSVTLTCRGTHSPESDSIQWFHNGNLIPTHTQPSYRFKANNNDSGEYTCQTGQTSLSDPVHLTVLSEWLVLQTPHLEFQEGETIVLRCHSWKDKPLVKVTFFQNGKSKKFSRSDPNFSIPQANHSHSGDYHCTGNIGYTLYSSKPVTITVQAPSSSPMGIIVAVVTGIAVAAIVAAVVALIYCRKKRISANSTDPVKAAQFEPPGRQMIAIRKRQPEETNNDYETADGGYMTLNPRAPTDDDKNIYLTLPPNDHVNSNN
UniProt P09038, whole entry, looked up: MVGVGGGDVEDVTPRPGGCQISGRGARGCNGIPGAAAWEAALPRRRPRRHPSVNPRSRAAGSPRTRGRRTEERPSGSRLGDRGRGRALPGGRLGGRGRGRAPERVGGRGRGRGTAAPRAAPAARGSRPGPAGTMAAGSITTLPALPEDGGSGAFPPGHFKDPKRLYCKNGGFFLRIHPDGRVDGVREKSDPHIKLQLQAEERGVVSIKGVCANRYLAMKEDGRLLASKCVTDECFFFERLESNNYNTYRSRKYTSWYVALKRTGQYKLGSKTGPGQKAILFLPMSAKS
UniProt Q9HA64: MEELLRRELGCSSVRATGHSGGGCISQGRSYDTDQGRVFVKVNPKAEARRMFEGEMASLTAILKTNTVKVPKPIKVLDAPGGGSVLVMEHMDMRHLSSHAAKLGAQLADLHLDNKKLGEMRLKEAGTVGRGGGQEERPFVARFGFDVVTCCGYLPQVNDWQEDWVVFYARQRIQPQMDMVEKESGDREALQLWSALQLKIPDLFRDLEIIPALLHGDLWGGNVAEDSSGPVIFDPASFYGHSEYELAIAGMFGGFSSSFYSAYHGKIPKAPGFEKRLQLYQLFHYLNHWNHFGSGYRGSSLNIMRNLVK
UniProt Q53R41: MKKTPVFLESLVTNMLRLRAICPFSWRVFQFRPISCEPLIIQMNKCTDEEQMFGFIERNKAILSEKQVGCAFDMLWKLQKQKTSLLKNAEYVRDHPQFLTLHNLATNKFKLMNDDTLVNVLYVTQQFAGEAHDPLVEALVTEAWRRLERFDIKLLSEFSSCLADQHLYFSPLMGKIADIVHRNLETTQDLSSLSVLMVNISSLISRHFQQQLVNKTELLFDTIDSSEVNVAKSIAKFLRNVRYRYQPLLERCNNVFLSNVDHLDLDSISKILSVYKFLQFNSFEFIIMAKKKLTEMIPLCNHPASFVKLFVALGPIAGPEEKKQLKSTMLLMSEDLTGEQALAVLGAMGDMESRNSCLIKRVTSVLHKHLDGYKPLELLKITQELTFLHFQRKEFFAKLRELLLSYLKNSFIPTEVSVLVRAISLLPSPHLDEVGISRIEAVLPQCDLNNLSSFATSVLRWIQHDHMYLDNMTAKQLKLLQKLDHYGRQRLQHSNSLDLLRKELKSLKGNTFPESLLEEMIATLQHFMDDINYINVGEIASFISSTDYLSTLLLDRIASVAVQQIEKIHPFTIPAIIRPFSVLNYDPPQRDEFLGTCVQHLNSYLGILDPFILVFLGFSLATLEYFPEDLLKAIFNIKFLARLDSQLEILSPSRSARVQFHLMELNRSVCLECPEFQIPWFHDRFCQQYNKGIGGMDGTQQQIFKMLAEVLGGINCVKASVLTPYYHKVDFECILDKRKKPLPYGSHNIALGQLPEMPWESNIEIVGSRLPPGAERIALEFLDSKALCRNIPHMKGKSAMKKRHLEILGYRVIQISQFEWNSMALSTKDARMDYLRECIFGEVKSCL
UniProt Q9UKB1: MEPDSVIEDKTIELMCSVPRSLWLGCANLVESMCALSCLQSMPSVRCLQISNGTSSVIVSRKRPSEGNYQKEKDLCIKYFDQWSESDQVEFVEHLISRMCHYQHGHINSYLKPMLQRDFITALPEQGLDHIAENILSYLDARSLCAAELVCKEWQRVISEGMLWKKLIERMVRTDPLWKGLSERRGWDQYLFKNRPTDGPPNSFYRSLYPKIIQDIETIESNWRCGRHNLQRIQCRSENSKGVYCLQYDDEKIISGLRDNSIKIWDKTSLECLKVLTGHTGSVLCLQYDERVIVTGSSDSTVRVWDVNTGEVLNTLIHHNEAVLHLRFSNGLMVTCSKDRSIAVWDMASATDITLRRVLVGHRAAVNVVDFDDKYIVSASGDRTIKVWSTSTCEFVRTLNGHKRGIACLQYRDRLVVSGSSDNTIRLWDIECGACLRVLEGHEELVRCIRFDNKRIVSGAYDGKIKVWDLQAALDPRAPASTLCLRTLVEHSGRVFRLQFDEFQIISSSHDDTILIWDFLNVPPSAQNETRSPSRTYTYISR

Key:
Assay in all cases: log2 fold change, soluble protein after heating vs DMSO (PISA); higher = thermal stabilisation; K562 cells, 10 uM, 30 min; active = over 0.2 and 3.5 SD of the protein, either way, in both replicates (recomputed)
[1] = compound: COC1=CC=C(C=C1)CN2C=CC3=C2C=C(C=C3)C(=O)NO
How it was run: (§1)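 Soluble protein was defined as the supernatant after 21,000xg for 90 min. It came from K562 cells at 2×10^6 cells/mL given 10 μM compound for 30 min, heated in aliquots for 3 min across 48°C-58°C, pooled, and extracted in PBS with 0.5% NP-40 at 4°C, and was quantified by TMTpro 16plex LC-MS/MS with equalised channel sums. Thermal stability against control samples, from duplicates, is reported as log2 fold change.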

[2] = compound: CON(C)C(=O)N1N=C(c2cc(F)ccc2F)S[C@@]1(CCCN)c1ccccc1 [filanesib]
How it was run: as §1

[3] = compound: CO[C@H]1C[C@@H]2CC[C@@H](C)[C@@](O)(O2)C(=O)C(=O)N2CCCC[C@H]2C(=O)O[C@H]([C@H](C)C[C@@H]2CC[C@H](n3cnnn3)[C@H](OC)C2)CC(=O)[C@H](C)/C=C(\C)[C@@H](O)[C@@H](OC)C(=O)[C@H](C)C[C@H](C)/C=C/C=C/C=C/1C [zotarolimus]
How it was run: as §1

[4] = compound: COc1cc(C(=O)O)ccc1NC(=O)[C@@H]1N[C@@H](CC(C)(C)C)[C@](C#N)(c2ccc(Cl)cc2F)[C@H]1c1cccc(Cl)c1F [idasanutlin]
How it was run: as §1

[5] = compound: COc1cc(Nc2ncc3c(n2)-c2ccc(Cl)cc2C(c2c(F)cccc2OC)=NC3)ccc1C(=O)O [alisertib]
How it was run: as §1

[6] = compound: COc1cc2nc(-c3cc(F)ccc3O)nc(N[C@@H]3CNC[C@H]3C(C)(C)O)c2cc1OC
How it was run: as §1

[7] = compound: COc1cc2ncnc(Nc3ccc(F)c(Cl)c3)c2cc1OCCCN1CCOCC1 [gefitinib]
How it was run: as §1

[8] = compound: COc1cccc2cc(-c3nc([C@H]4CC[C@H](C(=O)O)CC4)n4ncnc(N)c34)[nH]c12
How it was run: as §1

[9] = compound: CS(=O)(=O)CCNCc1ccc(-c2ccc3ncnc(Nc4ccc(OCc5cccc(F)c5)c(Cl)c4)c3c2)o1 [lapatinib]
How it was run: as §1

[10] = compound: CS(=O)(=O)N1CCN(Cc2cc3nc(-c4cccc5[nH]ncc45)nc(N4CCOCC4)c3s2)CC1 [pictilisib]
How it was run: as §1

Measured: log2 fold change

FBXL18 isoform 4 (UniProt Q96ME1)
inactive: [1] 0.101 | [2] -0.064 | [3] -0.031 | [4] -0.108 | [5] 0.024 | [6] 0.014 | [7] -0.025 | [8] 0.026 | [9] 0.018 | [10] 0.074

FAM210A (UniProt Q96ND0)
inactive: [1] 0.072 | [2] -0.062 | [3] -0.023 | [4] -0.026 | [5] 0 | [6] 0.055 | [7] -0.012 | [8] 0.041 | [9] -0.04 | [10] 0.068

FKBP9 (UniProt O95302)
inactive: [1] 0.035 | [2] 0.045 | [3] 0.046 | [4] -0.013 | [5] -0.029 | [6] 0.042 | [7] 0.019 | [8] -0.021 | [9] -0.006 | [10] 0.026

FAM98A (UniProt Q8NCA5)
inactive: [1] -0.055 | [2] 0.409 | [3] 0.002 | [4] 0.06 | [5] -0.143 | [6] 0.039 | [7] -0.055 | [8] -0.251 | [9] 0.072 | [10] -0.009

FAM8A1 (UniProt Q9UBU6)
inactive: [1] 0.173 | [2] -0.025 | [3] 0.035 | [4] -0.077 | [5] -0.086 | [6] 0.023 | [7] -0.044 | [8] 0.03 | [9] 0.006 | [10] -0.027

Reprinted at random: 2 entries already listed.
FAM8A1 (UniProt Q9UBU6)
inactive: [1] 0.173 | [2] -0.025 | [3] 0.035 | [4] -0.077 | [5] -0.086 | [6] 0.023 | [7] -0.044 | [8] 0.03 | [9] 0.006 | [10] -0.027

FAM210A (UniProt Q96ND0)
inactive: [1] 0.072 | [2] -0.062 | [3] -0.023 | [4] -0.026 | [5] 0 | [6] 0.055 | [7] -0.012 | [8] 0.041 | [9] -0.04 | [10] 0.068

The list goes on.

FLNC (UniProt Q14315)
inactive: [1] -0.019 | [2] 0.001 | [3] 0.021 | [4] -0.044 | [5] -0.036 | [6] 0.029 | [7] -0.004 | [8] -0.031 | [9] -0.008 | [10] -0.007

FAU (UniProt P62861)
inactive: [1] -0.142 | [2] 0.4 | [3] -0.044 | [4] 0.11 | [5] -0.18 | [6] -0.065 | [7] 0.029 | [8] -0.218 | [9] 0.123 | [10] -0.188

FN1 isoform 1 (UniProt P02751)
inactive: [1] 0.035 | [2] 0.004 | [3] -0.325 | [4] 0.087 | [5] 0.085 | [6] -0.022 | [7] -0.079 | [8] 0.203 | [9] -0.018 | [10] -0.119

FIP1L1 (UniProt Q6UN15)
inactive: [1] -0.098 | [2] 0.113 | [3] -0.05 | [4] 0.094 | [5] -0.097 | [6] -0.069 | [7] -0.016 | [8] 0.104 | [9] 0.051 | [10] -0.052

FARS2 (UniProt O95363)
inactive: [1] -0.171 | [2] -0.122 | [3] -0.049 | [4] -0.076 | [5] 0.137 | [6] 0.033 | [7] -0.114 | [8] 0.113 | [9] -0.061 | [10] 0.071

FCHO2 (UniProt Q0JRZ9)
inactive: [1] -0.082 | [2] 0.043 | [3] 0.034 | [4] -0.002 | [5] -0.075 | [6] 0.036 | [7] 0.106 | [8] 0.114 | [9] 0 | [10] -0.034

FAM49B (UniProt Q9NUQ9)
inactive: [1] -0.02 | [2] -0.071 | [3] 0.005 | [4] -0.082 | [5] -0.046 | [6] -0.014 | [7] -0.006 | [8] 0.059 | [9] 0.025 | [10] 0.013

FAR1 (UniProt Q8WVX9)
inactive: [1] 0.012 | [2] 0.009 | [3] 0.025 | [4] -0.113 | [5] -0.081 | [6] -0.095 | [7] 0.016 | [8] 0.017 | [9] 0.029 | [10] -0.025

FARSA (UniProt Q9Y285)
inactive: [1] -0.007 | [2] 0.001 | [3] 0.001 | [4] -0.072 | [5] -0.079 | [6] 0.052 | [7] 0.009 | [8] 0.006 | [9] 0 | [10] 0.043

FBXO7 (UniProt Q9Y3I1)
inactive: [1] 0.037 | [2] -0.069 | [3] -0.026 | [4] -0.04 | [5] -0.082 | [6] 0.082 | [7] -0.023 | [8] 0.011 | [9] -0.082 | [10] 0.036

FEN1 (UniProt P39748)
inactive: [1] 0.06 | [2] -0.215 | [3] 0.027 | [4] -0.099 | [5] 0.019 | [6] 0.039 | [7] -0.029 | [8] 0.096 | [9] -0.098 | [10] -0.005

FGFR1OP (UniProt O95684)
inactive: [1] 0.057 | [2] -0.032 | [3] -0.03 | [4] -0.034 | [5] -0.039 | [6] -0.03 | [7] 0.012 | [8] -0.031 | [9] 0.02 | [10] -0.001

FNTA (UniProt P49354)
inactive: [1] 0.162 | [2] 0.069 | [3] 0.019 | [4] -0.062 | [5] -0.074 | [6] -0.01 | [7] 0.056 | [8] 0.044 | [9] 0.04 | [10] -0.005

FAM3C (UniProt Q92520)
inactive: [1] 0.008 | [2] -0.057 | [3] 0.018 | [4] 0.006 | [5] -0.01 | [6] -0.062 | [7] 0.096 | [8] 0.036 | [9] -0.017 | [10] 0.001

FMC1 (UniProt Q96HJ9)
inactive: [1] 0.068 | [2] -0.037 | [3] -0.101 | [4] -0.091 | [5] -0.042 | [6] -0.008 | [7] 0.06 | [8] 0.023 | [9] -0.018 | [10] 0.024

FIZ1 (UniProt Q96SL8)
inactive: [1] -0.081 | [2] 0.078 | [3] 0.048 | [5] 0.117 | [7] 0.001 | [8] -0.108 | [10] 0.016

FGGY isoform 3 (UniProt Q96C11)
inactive: [1] 0.055 | [3] -0.111 | [4] -0.069 | [5] -0.148 | [6] 0.043 | [8] 0.02 | [9] -0.124 | [10] -0.182

FCGR2C (UniProt P31995)
inactive: [1] 0.016 | [2] 0.013 | [3] -0.015 | [4] -0.031 | [5] -0.064 | [6] 0.017 | [7] 0.022 | [8] 0.055 | [9] -0.003 | [10] 0.063

FLCN (UniProt Q8NFG4)
inactive: [1] 0.048 | [2] 0.049 | [3] 0.133 | [4] 0.026 | [5] -0.032 | [7] -0.022 | [8] 0.093 | [10] -0.208

FGF2 (UniProt P09038)
inactive: [1] -0.101 | [2] -0.005 | [3] -0.019 | [4] 0.015 | [5] 0.022 | [6] -0.021 | [7] -0.004 | [8] 0.051 | [9] 0 | [10] -0.046

FN3KRP (UniProt Q9HA64)
inactive: [1] 0.019 | [2] 0.002 | [3] -0.022 | [4] 0 | [5] -0.085 | [6] 0.027 | [7] -0.036 | [8] 0.036 | [9] -0.012 | [10] 0.011

FEM1B (UniProt Q9UK73)
inactive: [1] -0.096 | [2] 0.033 | [3] -0.017 | [4] -0.028 | [5] -0.06 | [6] -0.037 | [7] -0.013 | [8] 0.133 | [9] 0.001 | [10] -0.023

FASTKD1 (UniProt Q53R41)
inactive: [1] -0.037 | [2] -0.011 | [3] -0.192 | [4] -0.028 | [7] 0.473 | [10] 0.127

FBXW11 (UniProt Q9UKB1)
inactive: [1] -0.049 | [3] 0.019 | [4] -0.2 | [6] -0.023 | [9] -0.034 | [10] 0.005

FAM234B (UniProt A2RU67)
inactive: [1] -0.033 | [2] 0.018 | [3] -0.055 | [4] 0.16 | [6] -0.087 | [9] 0.335

FBXO38 (UniProt Q6PIJ6)
inactive: [1] -0.335 | [2] 0.162 | [3] -0.061 | [4] -0.044 | [6] -0.005 | [9] -0.029

FASTKD2 (UniProt Q9NYY8)
inactive: [1] -0.062 | [2] -0.099 | [3] 0.01 | [4] -0.089 | [5] -0.04 | [6] -0.023 | [7] -0.008 | [8] 0.052 | [9] -0.011 | [10] 0.022
